Measured values from US20260284208A1, “SYSTEM” (Oxford University Innovation Limited, priority 2023, published 2026).
The source gives many values for each of these; only a part stands here.

Tested on: library of 8,380 IKZF3 degrons (ZF-eGFP/mCherry reporter) in Jurkat cells
Assay: Pooled library screen (FACS, NGS, limma voom LogFC of positive vs negative read counts)
Assay type: cell-based, human
Procedure: A library of 8,380 IKZF3 degrons was cloned into pLVX-Sprout to create the eGFP/mCherry protein degradation reporter plasmid pool. A lentivirus pool was then generated using the Lenti-X lentiviral vector production method.
Jurkat cells were transduced at a multiplicity of infection of <0.3 with the lentivirus vector library in order to maximise the number of cells with a single integration. Transductions were carried out in 6 well TC-treated cell culture dishes (Falcon) with 3×10^6 cells per well. Cells were incubated for 2 days at 37° C. and 5% CO2 before the supernatant was removed and replaced with fresh media. 6 days post-transduction, mCherry+ cells were isolated via FACS using the FACS Aria Fusion (BD) in a buffer containing PBS (Gibco), 2 mM EDTA (Gibco), 25 mM HEPES (Sigma) and 1% BSA (Sigma). 8 days later, cells were treated with DMSO or a thalidomide analog for 18 hours at 37° C. and 5% CO2. mCherry+GFPlow and NOT(mCherry+GFPlow) cells were sorted by FACS using the FACS Aria Fusion (BD). DMSO treated cells were used to set the mCherry+GFPlow gate and dead cells were excluded from sorting by staining cells with 1 μg/mL DAPI (ThermoFisher). gDNA was isolated using the Maxwell RSC 48 (Promega). gDNA from cells that were unsorted and untreated were also isolated to determine the library representation on the day of compound treatment. Throughout the screen >600× coverage of the library was maintained. 3 biological replicates were carried out with a new transduction taking place each time.
A two-step PCR was used where the first PCR (PCR1) amplified the integrated degron sequence from gDNA and the second PCR (PCR2) added Illumina adaptors and barcodes to permit multiplexing. See Supp F for PCR1 and PCR2 primers. Q5 Hot Start High-Fidelity 2× Master Mix (New England Biolabs) was used for both PCRs. Sufficient gDNA was amplified in PCR1 in order to maintain >600× coverage and amplicons were purified using solid phase reversible immobilization (SPRI) beads (Beckman Coulter). Purified PCR1 products were analysed on the Tapestation 4200 (Agilent) to confirm purity prior to proceeding to PCR2. Sufficient PCR1 product was amplified in PCR2 in order to maintain >600× coverage and amplicons were run on a 2% agarose TAE gel. Target bands were excised and purified using the NucleoSpin Gel and PCR Clean-up Kit (Machery Nagel). Amplicons were analysed on the Tapestation 4200 and quantified using Qubit dsDNA HS kit (ThermoFisher). PCR products were pooled and sequenced as paired-reads on the NovaSeq (Illumina) using a SP2 200 cycles kit (Illumina).
Count distributions, percentage of read mapping, library coverage and replicate correlation per sample were assessed for QC purposes.
To carry out the library screen, we used the same plasmid construct as in our earlier flow cytometry assays, but pooling all 8,380 mutants together into one Jurkat population, ensuring a copy number of one plasmid per cell (FIG. 4B). […] These GFP-negative cells were then separated from the remaining GFP-positive population using fluorescence activated cell sorting (FACS). These two populations were then sequenced and the relative abundance of every mutant in both populations compared to provide a log FC value for each mutant sequence. This value indicated how frequently a sequence is observed in the GFP-negative population relative to the GFP-positive population, and therefore how effective a degron it is for that particular IMID compound.

O=C1CCC(N2C(=O)c3ccc(N4CCOCC4)cc3C2=O)C(=O)N1 (stereo not shown) [B03] was tested, and the B03_logFC (Degron-ID 4208, SEQ ID NO 3849, 46F_47W_49N_50I_52G_53A_54K_55F_67L) was 2.925, the B03_logFC (Degron-ID 4214, SEQ ID NO 3655, 46F_47W_49N_50I_52G_53A_54R_55F_67L_) was 3.336 and the B03_logFC (Degron-ID 4240, SEQ ID NO 3902, 46F_47W_49N_50V_52G_53A_54A_55F_67L) was 2.847. For the same compound, the B03_logFC (Degron-ID 4241, SEQ ID NO 3875, 46F_47W_49N_50V_52G_53A_54C_55F_67L) was 2.891, the B03_logFC (Degron-ID 4246, SEQ ID NO 3820, 46F_47W_49N_50V_52G_53A_54H_55F_67L_) was 2.97 and the B03_logFC (Degron-ID 4248, SEQ ID NO 4283, 46F_47W_49N_50V_52G_53A_54K_55F_67L_) was 2.246. It also gave a B03_logFC (Degron-ID 4253, SEQ ID NO 3729, 46F_47W_49N_50V_52G_53A_54Q_55F_67L_) of 3.156, a B03_logFC (Degron-ID 4254, SEQ ID NO 3830, 46F_47W_49N_50V_52G_53A_54R_55F_67L_) of 2.957 and a B03_logFC (Degron-ID 4255, SEQ ID NO 3799, 46F_47W_49N_50V_52G_53A_54S_55F_67L_) of 3.009. The B03_logFC (Degron-ID 4257, SEQ ID NO 4386, 46F_47W_49N_50V_52G_53A_54V_55F_67L_) was 2.059, the B03_logFC (Degron-ID 4260, SEQ ID NO 3666, 46F_47W_49P_50I_52G_53A_54A_55F_67L_) was 3.303 and the B03_logFC (Degron-ID 4261, SEQ ID NO 3665, 46F_47W_49P_50I_52G_53A_54C_55F_67L_) was 3.308. The B03_logFC (Degron-ID 4264, SEQ ID NO 3805, 46F_47W_49P_50I_52G_53A_54F_55F_67L_) was 3, the B03_logFC (Degron-ID 4272, SEQ ID NO 3650, 46F_47W_49P_50I_52G_53A_54P_55F_67L_) was 3.35 and the B03_logFC (Degron-ID 4277, SEQ ID NO 3850, 46F_47W_49P_50I_52G_53A_54V_55F_67L) was 2.922. It also gave a B03_logFC (Degron-ID 4281, SEQ ID NO 4290, 46F_47W_49P_50Q_52G_53A_54C_55F_67L_) of 2.237, a B03_logFC (Degron-ID 4291, SEQ ID NO 3745, 46F_47W_49P_50Q_52G_53A_54N_55F_67L_) of 3.138 and a B03_logFC (Degron-ID 4294, SEQ ID NO 3766, 46F_47W_49P_50Q_52G_53A_54R_55F_67L_) of 3.085. It also gave a B03_logFC (Degron-ID 4295, SEQ ID NO 3940, 46F_47W_49P_50Q_52G_53A_54S_55F_67L) of 2.778, a B03_logFC (Degron-ID 4303, SEQ ID NO 4295, 46F_47W_49P_50V_52G_53A_54E_55F_67L_) of 2.231 and a B03_logFC (Degron-ID 4308, SEQ ID NO 3674, 46F_47W_49P_50V_52G_53A_54K_55F_67L_) of 3.289. The B03_logFC (Degron-ID 4309, SEQ ID NO 4247, 46F_47W_49P_50V_52G_53A_54L_55F_67L_) was 2.302, the B03_logFC (Degron-ID 4310, SEQ ID NO 3777, 46F_47W_49P_50V_52G_53A_54M_55F_67L_) was 3.051 and the B03_logFC (Degron-ID 4312, SEQ ID NO 3852, 46F_47W_49P_50V_52G_53A_54P_55F_67L) was 2.918. The B03_logFC (Degron-ID 4317, SEQ ID NO 3810, 46F_47W_49P_50V_52G_53A_54V_55F_67L_) was 2.991, the B03_logFC (Degron-ID 4319, SEQ ID NO 3844, 46F_47W_49P_50V_52G_53A_54Y_55F_67L_) was 2.932 and the B03_logFC (Degron-ID 4320, SEQ ID NO 3698, 46F_47Y_49D_50I_52G_53A_54A_55F_67L_) was 3.227. It also gave a B03_logFC (Degron-ID 4325, SEQ ID NO 4348, 46F_47Y_49D_50I_52G_53A_54G_55F_67L_) of 2.126, a B03_logFC (Degron-ID 4328, SEQ ID NO 3659, 46F_47Y_49D_50I_52G_53A_54K_55F_67L_) of 3.324 and a B03_logFC (Degron-ID 4334, SEQ ID NO 3648, 46F_47Y_49D_50I_52G_53A_54R_55F_67L_) of 3.351. For the same compound, the B03_logFC (Degron-ID 4335, SEQ ID NO 3710, 46F_47Y_49D_50I_52G_53A_54S_55F_67L_) was 3.202, the B03_logFC (Degron-ID 4336, SEQ ID NO 3860, 46F_47Y_49D_50I_52G_53A_54T_55F_67L) was 2.907 and the B03_logFC (Degron-ID 4360, SEQ ID NO 3840, 46F_47Y_49D_50V_52G_53A_54A_55F_67L_) was 2.941. The B03_logFC (Degron-ID 4361, SEQ ID NO 3863, 46F_47Y_49D_50V_52G_53A_54C_55F_67L) was 2.899, the B03_logFC (Degron-ID 4371, SEQ ID NO 3732, 46F_47Y_49D_50V_52G_53A_54N_55F_67L_) was 3.152 and the B03_logFC (Degron-ID 4373, SEQ ID NO 3693, 46F_47Y_49D_50V_52G_53A_54Q_55F_67L_) was 3.236. For the same compound, the B03_logFC (Degron-ID 4374, SEQ ID NO 3677, 46F_47Y_49D_50V_52G_53A_54R_55F_67L_) was 3.284, the B03_logFC (Degron-ID 4375, SEQ ID NO 3754, 46F_47Y_49D_50V_52G_53A_54S_55F_67L_) was 3.118 and the B03_logFC (Degron-ID 4376, SEQ ID NO 3915, 46F_47Y_49D_50V_52G_53A_54T_55F_67L) was 2.823. The B03_logFC (Degron-ID 4383, SEQ ID NO 3683, 46F_47Y_49E_50I_52G_53A_54E_55F_67L_) was 3.263, the B03_logFC (Degron-ID 4384, SEQ ID NO 3681, 46F_47Y_49E_50I_52G_53A_54F_55F_67L_) was 3.271 and the B03_logFC (Degron-ID 4385, SEQ ID NO 3718, 46F_47Y_49E_50I_52G_53A_54G_55F_67L_) was 3.174. For the same compound, the B03_logFC (Degron-ID 4398, SEQ ID NO 4409, 46F_47Y_49E_50I_52G_53A_54W_55F_67L_) was 2.032.
